{"source": "PubChem BioAssay AID212", "about": "(DTP/NCI, 2004)", "system": "BDF1 mice, colon carcinoma 38 sc, T/C %", "test": "NCI In Vivo Anticancer Drug Screen. Data for tumor model Colon Carcinoma 38 (subcutaneous) in B6D2F1 (BDF1) mice", "outline": "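Compound antitumor activity was assessed in mice carrying transplantable tumors. Survival or tumor size was recorded, and each value is the treated-group measurement divided by that of the vehicle-treated control group.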", "key": {"[1]": {"conditions": "T/C endpoint: median tumor weight (est.), dose: 2.0 mg/kg/injection, schedule: Q07DX002 (ip), vehicle: saline, evaluated on day 20, higher T/C = larger tumour"}, "[2]": {"conditions": "T/C endpoint: median tumor weight (est.), dose: 4.0 mg/kg/injection, schedule: Q07DX002 (ip), vehicle: saline, evaluated on day 20, higher T/C = larger tumour"}, "[3]": {"conditions": "T/C endpoint: median tumor weight (est.), dose: 8.0 mg/kg/injection, schedule: Q07DX002 (ip), vehicle: saline, evaluated on day 20, higher T/C = larger tumour"}, "[4]": {"conditions": "T/C endpoint: median tumor weight (est.), dose: 50.0 mg/kg/injection, schedule: Q07DX002 (ip), vehicle: saline with Tween-80, evaluated on day 20, higher T/C = larger tumour"}}, "note": "The list is a part of this screen's results and no random one: it gathers tests that were run many times, whatever their T/C, doses with no T/C, and many T/C values between a quarter and a half above the control. Other doses and runs of a compound stand elsewhere. T/C is the treated group as % of the vehicle group. Schedules are NCI's codes, read here as Q, the interval in days (D) or hours (H), X, the number of doses. Some T/C values are followed by the survivors on the day toxicity was checked, most often the fifth; where none is given, no animal had died by that day. Some entries hold several experiments; the results are listed from low to high. Some doses have a count of surviving animals in place of a T/C: the source files T/C as zero there, which appears to mark a toxic dose or a test without result, not a measured value. Counts of survivors are from the toxicity check (mostly the fifth day) where no day follows; animals may have died later. Where survival is the endpoint, this PubChem deposit counts one and a half times the control or more as active, and values a quarter to a half above the control carry no call in these data; other NCI protocols may use other cut-offs.", "data": [{"smiles": "O=C1C(NCC(O)CO)=C(N2CC2)C(=O)C(NCC(O)CO)=C1N1CC1", "note": "(stereo not given)", "values": [{"measurement": "T/C", "setting": "[1]", "result": "131 % of control"}, {"measurement": "T/C", "setting": "[2]", "result": "125 % of control"}, {"measurement": "T/C", "setting": "[3]", "result": "132 % of control"}, {"measurement": "survivor count", "setting": "T/C endpoint: median tumor weight (est.), dose: 16.0 mg/kg/injection, schedule: Q07DX002 (ip), vehicle: saline, higher T/C = larger tumour", "result": "6 of 10 on day 20"}, {"measurement": "survivor count", "setting": "T/C endpoint: median tumor weight (est.), dose: 32.0 mg/kg/injection, schedule: Q07DX002 (ip), vehicle: saline, higher T/C = larger tumour", "result": "0 of 10 on day 20"}, {"measurement": "survivor count", "setting": "T/C endpoint: median tumor weight (est.), dose: 32.0 mg/kg/injection, schedule: Q07DX002 (ip), vehicle: suspension in saline, higher T/C = larger tumour", "result": "1 of 10 on day 20"}]}, {"smiles": "Nc1ncn(C2OC(CO)C(O)C2O)c(=O)n1", "note": "(stereo not given)", "values": [{"measurement": "T/C", "setting": "T/C endpoint: median tumor weight (est.), dose: 1.0 mg/kg/injection, schedule: Q07DX003 (ip), vehicle: saline, evaluated on day 20, higher T/C = larger tumour", "result": "38, 68, 75, 90 [9 of 10 alive], 96, 120, 159 % of control [9 of 10 alive]"}, {"measurement": "T/C", "setting": "[1]", "result": "96, 97, 101, 105 % of control"}, {"measurement": "T/C", "setting": "T/C endpoint: median tumor weight (est.), dose: 2.0 mg/kg/injection, schedule: Q07DX003 (ip), vehicle: saline, evaluated on day 20, higher T/C = larger tumour", "result": "50, 67, 81, 82, 84, 99, 251 % of control"}, {"measurement": "T/C", "setting": "[2]", "result": "64, 74, 75, 121, 131 % of control"}, {"measurement": "T/C", "setting": "T/C endpoint: median tumor weight (est.), dose: 4.0 mg/kg/injection, schedule: Q07DX003 (ip), vehicle: saline, evaluated on day 20, higher T/C = larger tumour", "result": "37, 50, 52, 55, 67, 70, 111 % of control"}, {"measurement": "T/C", "setting": "[3]", "result": "52, 57, 72 [9 of 10 alive], 86, 97 % of control"}, {"measurement": "T/C", "setting": "T/C endpoint: median tumor weight (est.), dose: 8.0 mg/kg/injection, schedule: Q07DX003 (ip), vehicle: saline, evaluated on day 20, higher T/C = larger tumour", "result": "23 [8 of 10 alive], 34, 41, 43, 46 [9 of 10 alive], 57, 106 % of control"}, {"measurement": "T/C", "setting": "T/C endpoint: median tumor weight (est.), dose: 16.0 mg/kg/injection, schedule: Q07DX002 (ip), vehicle: saline, evaluated on day 20, higher T/C = larger tumour", "result": "27 [9 of 10 alive], 35, 40, 62, 75 % of control"}, {"measurement": "T/C", "setting": "T/C endpoint: median tumor weight (est.), dose: 16.0 mg/kg/injection, schedule: Q07DX003 (ip), vehicle: saline, evaluated on day 20, higher T/C = larger tumour", "result": "19, 22, 24, 34, 37, 44 % of control"}]}, {"smiles": "CCCCCCCC(=O)N/N=C(\\CO)[C@]1(O)Cc2c(O)c3c(c(O)c2[C@@H](OC2CC(N)C(O)C(C)O2)C1)C(=O)c1c(OC)cccc1C3=O", "note": "(stereo not given in full)", "values": [{"measurement": "T/C", "setting": "T/C endpoint: median survival time, dose: 78.0 mg/kg/injection, schedule: Q07DX002 (sc), vehicle: saline, higher T/C = longer survival", "result": "128 % of control"}, {"measurement": "survivor count", "setting": "T/C endpoint: median tumor weight (est.), dose: 108.0 mg/kg/injection, schedule: Q07DX002 (ip), vehicle: distilled water + Tween-80, higher T/C = larger tumour", "result": "0 of 10 on day 20 and 4 of 10 on day 20"}, {"measurement": "survivor count", "setting": "T/C endpoint: median tumor weight (est.), dose: 108.0 mg/kg/injection, schedule: Q07DX002 (ip), vehicle: suspension in saline, higher T/C = larger tumour", "result": "0 of 10 on day 20"}, {"measurement": "survivor count", "setting": "T/C endpoint: median tumor weight (est.), dose: 216.0 mg/kg/injection, schedule: Q07DX002 (ip), vehicle: distilled water + Tween-80, higher T/C = larger tumour", "result": "0 of 10 on day 20"}]}, {"smiles": "CCOC(=O)CNC(=O)CCCCSc1ncnc2nc[nH]c12", "values": [{"measurement": "survivor count", "setting": "T/C endpoint: median tumor weight (est.), dose: 3200.0 mg/kg/injection, schedule: Q07DX003 (ip), vehicle: saline with Tween-80, higher T/C = larger tumour", "result": "3 of 10"}]}, {"smiles": "CNC(=O)OCc1c(COC(=O)NC)c(C)n(-c2ccc(OC)cc2)c1C", "values": [{"measurement": "T/C", "setting": "T/C endpoint: median tumor weight (est.), dose: 6.25 mg/kg/injection, schedule: Q07DX002 (ip), vehicle: Klucel (hydroxypropylcellulose) (HPC), evaluated on day 20, higher T/C = larger tumour", "result": "134 % of control"}, {"measurement": "T/C", "setting": "T/C endpoint: median tumor weight (est.), dose: 12.5 mg/kg/injection, schedule: Q07DX002 (ip), vehicle: Klucel (hydroxypropylcellulose) (HPC), evaluated on day 20, higher T/C = larger tumour", "result": "125 % of control"}, {"measurement": "T/C", "setting": "T/C endpoint: median tumor weight (est.), dose: 50.0 mg/kg/injection, schedule: Q07DX002 (ip), vehicle: Klucel (hydroxypropylcellulose) (HPC), evaluated on day 20, higher T/C = larger tumour", "result": "128 % of control"}]}, {"smiles": "COC(=O)C1(F)C(=O)NC(=O)NC1OC", "note": "(stereo not given)", "values": [{"measurement": "survivor count", "setting": "T/C endpoint: median tumor weight (est.), dose: 1600.0 mg/kg/injection, schedule: Q07DX002 (ip), vehicle: Klucel (hydroxypropylcellulose) (HPC), higher T/C = larger tumour", "result": "5 of 10 on day 20"}]}, {"smiles": "O=C(N/N=C\\c1cc(Br)cc(Br)c1O)N/N=C/c1cc(Br)cc(Br)c1O", "values": [{"measurement": "T/C", "setting": "T/C endpoint: median tumor weight (est.), dose: 25.0 mg/kg/injection, schedule: Q07DX002 (ip), vehicle: saline with Tween-80, evaluated on day 20, higher T/C = larger tumour", "result": "146 % of control"}, {"measurement": "T/C", "setting": "[4]", "result": "131 % of control"}]}, {"smiles": "Cc1oc2c(C)c3oc(=O)cc(C)c3cc2c1CCl", "values": [{"measurement": "survivor count", "setting": "T/C endpoint: median tumor weight (est.), dose: 200.0 mg/kg/injection, schedule: Q07DX002 (ip), vehicle: saline with Tween-80, higher T/C = larger tumour", "result": "5 of 10 on day 20"}, {"measurement": "survivor count", "setting": "T/C endpoint: median tumor weight (est.), dose: 400.0 mg/kg/injection, schedule: Q07DX002 (ip), vehicle: saline with Tween-80, higher T/C = larger tumour", "result": "0 of 10 on day 20"}]}, {"smiles": "CC(=O)NC(Cc1ccc(F)cc1)C(=O)O", "note": "(stereo not given)", "values": [{"measurement": "T/C", "setting": "[4]", "result": "131 % of control"}, {"measurement": "survivor count", "setting": "T/C endpoint: median tumor weight (est.), dose: 1600.0 mg/kg/injection, schedule: Q07DX002 (ip), vehicle: saline with Tween-80, higher T/C = larger tumour", "result": "4 of 10 on day 20"}]}]}
